These are yes or no findings as the source states them, for the method shown. Binding seen in cells or lysates may run through a third protein.

Amino acid sequences for entries named in this document (tags omitted).
UniProt P35611: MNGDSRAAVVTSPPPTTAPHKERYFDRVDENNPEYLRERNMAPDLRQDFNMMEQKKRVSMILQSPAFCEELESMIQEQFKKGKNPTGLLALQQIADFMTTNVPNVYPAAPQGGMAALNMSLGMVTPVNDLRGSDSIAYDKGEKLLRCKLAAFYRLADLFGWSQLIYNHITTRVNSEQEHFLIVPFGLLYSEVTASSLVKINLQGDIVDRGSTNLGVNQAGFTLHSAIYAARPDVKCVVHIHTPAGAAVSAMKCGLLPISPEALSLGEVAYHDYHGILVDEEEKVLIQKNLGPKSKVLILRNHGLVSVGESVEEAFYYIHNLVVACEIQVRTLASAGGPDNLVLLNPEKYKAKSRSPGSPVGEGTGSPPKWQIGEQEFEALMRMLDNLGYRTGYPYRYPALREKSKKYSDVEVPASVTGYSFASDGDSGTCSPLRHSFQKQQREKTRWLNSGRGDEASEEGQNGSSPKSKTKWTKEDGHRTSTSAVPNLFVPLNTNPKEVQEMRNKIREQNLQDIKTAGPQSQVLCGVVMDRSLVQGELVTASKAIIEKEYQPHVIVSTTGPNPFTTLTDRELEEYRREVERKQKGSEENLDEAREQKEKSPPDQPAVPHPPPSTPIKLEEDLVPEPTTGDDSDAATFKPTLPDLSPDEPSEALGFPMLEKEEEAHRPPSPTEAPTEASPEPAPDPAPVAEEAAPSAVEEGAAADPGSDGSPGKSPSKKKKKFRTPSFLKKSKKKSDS
UniProt P13569: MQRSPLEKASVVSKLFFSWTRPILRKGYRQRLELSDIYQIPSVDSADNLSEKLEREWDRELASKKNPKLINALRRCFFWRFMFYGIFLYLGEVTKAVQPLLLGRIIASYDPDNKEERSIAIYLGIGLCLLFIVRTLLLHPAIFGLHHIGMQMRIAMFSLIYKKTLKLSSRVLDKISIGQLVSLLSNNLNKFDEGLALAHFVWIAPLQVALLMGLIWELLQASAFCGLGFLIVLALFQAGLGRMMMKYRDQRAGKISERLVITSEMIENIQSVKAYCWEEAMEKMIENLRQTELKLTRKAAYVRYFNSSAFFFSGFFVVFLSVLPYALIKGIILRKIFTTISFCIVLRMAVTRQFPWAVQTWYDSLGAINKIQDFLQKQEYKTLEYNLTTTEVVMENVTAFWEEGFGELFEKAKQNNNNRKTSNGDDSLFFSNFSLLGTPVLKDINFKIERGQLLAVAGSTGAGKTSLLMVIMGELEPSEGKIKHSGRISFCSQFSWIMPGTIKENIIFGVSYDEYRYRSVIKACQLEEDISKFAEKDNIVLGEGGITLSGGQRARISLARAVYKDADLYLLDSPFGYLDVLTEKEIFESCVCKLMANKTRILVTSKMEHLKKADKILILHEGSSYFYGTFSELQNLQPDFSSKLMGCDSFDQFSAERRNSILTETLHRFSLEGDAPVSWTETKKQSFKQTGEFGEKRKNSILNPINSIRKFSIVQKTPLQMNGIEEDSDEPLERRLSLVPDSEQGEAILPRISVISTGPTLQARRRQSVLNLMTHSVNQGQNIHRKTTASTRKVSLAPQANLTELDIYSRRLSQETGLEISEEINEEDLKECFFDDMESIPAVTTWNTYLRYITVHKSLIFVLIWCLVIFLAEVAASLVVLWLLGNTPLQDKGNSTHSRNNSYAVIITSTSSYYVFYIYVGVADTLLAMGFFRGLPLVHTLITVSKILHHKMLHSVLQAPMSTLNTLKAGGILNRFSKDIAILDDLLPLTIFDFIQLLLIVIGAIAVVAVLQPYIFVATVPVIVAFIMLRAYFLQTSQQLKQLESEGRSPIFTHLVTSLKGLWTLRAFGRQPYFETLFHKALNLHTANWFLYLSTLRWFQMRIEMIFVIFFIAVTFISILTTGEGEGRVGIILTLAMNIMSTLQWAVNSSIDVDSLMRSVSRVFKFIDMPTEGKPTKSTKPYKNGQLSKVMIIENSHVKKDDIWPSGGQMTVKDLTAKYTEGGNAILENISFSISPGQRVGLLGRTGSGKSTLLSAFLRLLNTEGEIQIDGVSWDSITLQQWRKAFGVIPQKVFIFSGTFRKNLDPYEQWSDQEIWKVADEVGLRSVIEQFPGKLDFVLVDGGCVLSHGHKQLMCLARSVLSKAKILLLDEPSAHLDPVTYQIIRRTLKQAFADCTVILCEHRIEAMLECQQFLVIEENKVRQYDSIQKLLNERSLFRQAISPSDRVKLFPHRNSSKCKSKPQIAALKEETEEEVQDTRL

Test [1] deals with HA-WT adducin (N-terminal HA-tag) (human) (UniProt P35611). Put plainly: co-IP; HEK293 T cells co-expressing CFTR and HA-adducin; immunoprecipitated with anti-HA agarose affinity gel, 2 and 24 hours incubation; CFTR detected by blot.
For test [2], the target named is WT adducin-FLAG (C-terminal FLAG tag) (human) (UniProt P35611). Put plainly: co-IP; HEK293 T cells co-expressing CFTR and adducin-FLAG; immunoprecipitated with an anti-FLAG antibody; CFTR detected by blot in lysates, flow through and five sequential eluates.

As to “CFTR (from pcDNA3-CFTR) (from UniProt P13569 1-1480)”, the binding entry in test [1] and in test [2] was “no binding” in each case.

The record behind these values is paper PMC3528715.
